{
  "source": "PubChem BioAssay AID504834",
  "about": "(National Center for Advancing Translational Sciences (NCATS), 2011)",
  "note": "Values joined by “and” are separate entries in the source; they are usually repeats but may differ in a detail not shown here. Identical values can stand only once. Screen size: about 320,000 compounds; about 22,000 (6.9%) were called active. Inconclusive means that the source gave no clear call. Such entries were picked first, then a sample of the others. The call rests on the fitted dose curve; in most records, active means well fitted inhibition curve with a large enough effect; inconclusive means small, poorly fitted or top-dose-only effect, or another doubt; inactive means no such curve, though single readings can be large or run the other way. Potencies beside an inconclusive call are fits to weak or partial responses and may not hold up. On the % scale 0 is the no-effect control and ±100 the full control effect; potency means the concentration at half of the fitted maximal effect.",
  "data": [
    {"assay": "Primary qHTS for delayed death inhibitors of the malarial parasite plastid, 96 hour incubation", "conditions": "P. falciparum luciferase reporter growth; series mostly up to 28.7 µM; activity change, negative = inhibition: at the top concentration", "outline": "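Erythrocytes infected with luciferase-expressing P. falciparum were dispensed at 2% hematocrit and 0.05% parasitemia (final), then incubated with compounds 96 hours at 37 C in 5% CO2. Luminescence after detection reagent addition reported growth.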", "values": [
      {"smiles": "Cc1ccc(C(=O)N[C@@H](C)CN2C3=NC[C@H](Cc4ccccc4)N3C[C@H]2Cc2ccc(O)cc2)cc1Br", "Potency": "active: 1.31 µM"},
      {"smiles": "COc1cc(/C=C(\\C#N)C(=O)NCC2CCCO2)ccc1OC(C)C", "note": "(stereo not drawn)", "Potency": "inconclusive: 3.29 µM [inhibitor, single point]"},
      {"smiles": "CC(C)(C)NC(=O)CN(Cc1ccc(F)cc1)C(=O)Cn1nnc(-c2ccc(F)cc2)n1", "activity change, negative = inhibition": "inactive: -2.93%"},
      {"smiles": "Cc1cc(F)ccc1NC(=O)C1CCN(S(=O)(=O)c2ccc3c(c2)CCCC(=O)N3)CC1", "Potency": "inconclusive: 18.5 µM [inhibitor, single point]"},
      {"smiles": "O=C(CCn1nnc2ccccc21)N/N=C\\Cc1ccccc1", "Potency": "inconclusive: 8.28 µM [inhibitor, partial curve, poor fit]"},
      {"smiles": "CC1=C(C(=O)OC(C)C)C(c2cccc(F)c2)N2C(=O)C(C)SC2=N1", "note": "(stereo not drawn)", "Potency": "inconclusive: 18.5 µM [inhibitor, single point]"},
      {"smiles": "COc1ccc(C)cc1NC(=O)c1sc2ncn(CC(=O)N3CCCCC3)c(=O)c2c1C", "Potency": "inconclusive: 3.7 µM [inhibitor, partial curve]"},
      {"smiles": "COc1cc(/C=N/n2c(-c3ccccc3)n[nH]c2=S)cc(OC)c1O", "activity change, negative = inhibition": "inactive: -25.2%"},
      {"smiles": "N/C(Cn1cncn1)=N\\NC(=O)C(=O)Nc1ccc(Cl)cc1Cl", "Potency": "inconclusive: 4.15 µM [inhibitor, single point]"},
      {"smiles": "CC1CCCN(C(=O)CSc2nc3ccccc3o2)C1", "note": "(stereo not drawn)", "Potency": "inconclusive: 11.7 µM [inhibitor, single point]"},
      {"smiles": "c1ccc(CC(NCc2ccco2)c2ccccc2)cc1", "note": "(stereo not drawn)", "Potency": "inconclusive: 11.7 µM [inhibitor, single point]"},
      {"smiles": "NS(=O)(=O)c1cccc(NC(=O)COC(=O)C2CCCCC2)c1", "activity change, negative = inhibition": "inactive: 33.5%"},
      {"smiles": "CCN1C(=O)[C@H]2[C@@H](c3ccc(SC4CCCCC4)cc3)N[C@@](CC(C)C)(C(=O)OC)[C@H]2C1=O", "Potency": "active: 2.94 µM"},
      {"smiles": "O=C(Nc1cccc(C(F)(F)F)c1)C1CCN(S(=O)(=O)c2ccc(N3CCCC3=O)cc2)CC1", "Potency": "active: 13.1 µM"},
      {"smiles": "COc1ccc2c(c1OC)c(=O)n1c3ccc(OC(C)C(=O)NCCCN4CCOCC4)cc3c3ccnc2c31", "note": "(stereo not drawn)", "Potency": "active: 4.15 µM"},
      {"smiles": "COc1ccccc1NC(=O)N(Cc1cc2cc(OC)c(OC)cc2[nH]c1=O)CC1CCCO1", "note": "(stereo not drawn)", "Potency": "inconclusive: 11.7 µM [inhibitor, partial curve, poor fit]"},
      {"smiles": "Cn1c(=O)oc2cc(S(=O)(=O)NC3CCN(Cc4ccccc4)CC3)ccc21", "Potency": "inconclusive: 11.7 µM [inhibitor, single point]"},
      {"smiles": "O=C(Nc1cc(Cl)ccc1Cl)c1ccc(-c2ccccc2)cc1", "Potency": "inconclusive: 18.5 µM [inhibitor, single point]"},
      {"smiles": "CCCOP(=O)(OCCC)C(NC(=O)c1ccccc1)=C(Cl)Cl", "Potency": "inconclusive: 18.5 µM [inhibitor, single point]"},
      {"smiles": "C=C(C)C1CC=C(C)/C(=N/NC(=O)c2ccc(NC(=O)CCC)cc2)C1", "note": "(stereo not drawn)", "Potency": "inconclusive: 10.4 µM [inhibitor, single point]"},
      {"smiles": "Cc1ccc(NC(=O)Cn2nnc3ccccc3c2=O)cc1", "activity change, negative = inhibition": "inactive: 23.3%"},
      {"smiles": "Cc1ccc(-n2ncc3c(SCC(=O)NNC(=O)c4ccco4)ncnc32)cc1", "Potency": "inconclusive: 11.7 µM [inhibitor, partial curve]"},
      {"smiles": "Nc1ccc(C(=O)Nc2ccccc2N)cc1", "Potency": "inactive and inconclusive: 4.15 µM [inhibitor, single point]"},
      {"smiles": "O=C(COc1ccc2c(c1)C(=O)CC1(CCCCC1)O2)NCc1ccccc1", "Potency": "active: 3.7 µM"},
      {"smiles": "Clc1cnc2nc(SC/C=C/c3ccccc3)[nH]c2c1", "Potency": "inconclusive: 2.33 µM [inhibitor, full curve]"},
      {"smiles": "c1ccc(CC2CNc3ccccc3CN2)cc1", "note": "(stereo not drawn)", "Potency": "inconclusive: 1.31 µM [inhibitor, single point]"},
      {"smiles": "O=C(NCCO)/C(=C\\c1ccco1)NC(=O)c1ccco1", "Potency": "inconclusive: 11.7 µM [inhibitor, single point]"},
      {"smiles": "CCOC(=O)CCC(=O)O[C@H]1[C@H](O[C@@H]2[C@@H](C)[C@H](O[C@H]3C[C@@](C)(OC)[C@@H](O)[C@H](C)O3)[C@@H](C)C(=O)O[C@H](CC)[C@@](C)(O)[C@H](O)[C@@H](C)C(=O)[C@H](C)C[C@@]2(C)O)O[C@H](C)C[C@@H]1N(C)C", "Potency": "active: 5.22 µM"},
      {"smiles": "O=C(/C=C/Nc1ccc([N+](=O)[O-])cc1)c1ccc(Br)cc1", "Potency": "inconclusive: 13.1 µM [inhibitor, single point]"},
      {"smiles": "COC(=O)c1cc(Cl)c(NC(=O)c2ccc(F)cc2)cc1OC", "Potency": "active: 9.28 µM"},
      {"smiles": "Cc1cc(C(=O)Cn2cnc3ccccc3c2=O)c(C)n1C1CC1", "activity change, negative = inhibition": "inactive: 50.9%"},
      {"smiles": "O=C(Nc1ccc2c(c1)OCO2)Nc1ccccn1", "activity change, negative = inhibition": "inactive: 0%"},
      {"smiles": "O=C(NC12CC3CC(CC(C3)C1)C2)c1cccc(OC(F)F)c1", "activity change, negative = inhibition": "inactive: -10.9%"},
      {"smiles": "Clc1ccc(SCCCCN2CCNCC2)cc1", "Potency": "active: 11.7 µM"},
      {"smiles": "Cc1cccc(CNc2ccc(C(CC(N)=O)NC(=O)c3ccccc3)cc2[N+](=O)[O-])c1", "note": "(stereo not drawn)", "Potency": "inconclusive: 13.1 µM [inhibitor, single point]"},
      {"smiles": "COc1ccc(OCC(=O)N/N=C2\\CCCc3ccccc32)cc1", "Potency": "inconclusive: 9.28 µM [inhibitor, single point]"},
      {"smiles": "CCCn1c(SCC(=O)c2ccc3c(c2)OCCO3)nnc1C(C)C", "Potency": "inconclusive: 1.04 µM [inhibitor, partial curve, poor fit]"},
      {"smiles": "Cc1ccc2nc(-c3ccncc3)c(NC3CCCC3)n2c1", "Potency": "inconclusive: 4.65 µM [inhibitor, partial curve, poor fit]"},
      {"smiles": "CCCn1c(SCC(N)=O)nnc1-c1ccco1", "activity change, negative = inhibition": "inactive: 35.2%"},
      {"smiles": "COc1ccc(OC)c(N(CC(=O)NCc2ccccn2)S(C)(=O)=O)c1", "activity change, negative = inhibition": "inactive: 50.1%"},
      {"smiles": "N#Cc1ccccc1Cn1cc(C(=O)C2CC2)c2ccccc21", "Potency": "inconclusive: 14.7 µM [inhibitor, single point]"},
      {"smiles": "O=C(c1cc(-c2ccc(Cl)c(Cl)c2)on1)N1CCOCC1", "Potency": "inconclusive: 11.7 µM [inhibitor, single point]"},
      {"smiles": "COc1ccc(C)cc1NC(=O)CCN1CCN(c2ccccc2F)CC1", "Potency": "inconclusive: 10.4 µM [inhibitor, single point]"},
      {"smiles": "Cn1ncc2c(Nc3ccc(Cl)c(Cl)c3)ncnc21", "activity change, negative = inhibition": "inactive: 4.08%"},
      {"smiles": "CN(Cc1ccco1)S(=O)(=O)c1cc(F)ccc1CN1C(=O)c2cccnc2C1=O", "activity change, negative = inhibition": "inactive: -8.36%"},
      {"smiles": "COC1CCN(C(=O)CC2C(=O)NCCN2CC(C)(C)C)CC1", "note": "(stereo not drawn)", "Potency": "inconclusive: 13.1 µM [inhibitor, single point]"},
      {"smiles": "CCCCCCN(C(=O)CCCCCN1C(=O)NC(c2ccc(-c3ccccc3)cc2)C(C(=O)OCc2ccccc2)=C1C)C(C(=O)NCCCC)c1ccc(OCC(=O)OC)c(C(=O)OC)c1", "note": "(stereo not drawn)", "Potency": "active: 2.62 µM"},
      {"smiles": "CCOc1cc(/C=C(\\C#N)c2nc3ccccc3[nH]2)ccc1OC(C)C(=O)O", "note": "(stereo not drawn)", "activity change, negative = inhibition": "inactive: 16.5%"},
      {"smiles": "CCc1cc(C(=O)OC)c(NC(=O)CSc2nccn2C)s1", "Potency": "inconclusive: 1.04 µM [inhibitor, full curve]"},
      {"smiles": "O=C(NNC1CC(=O)N(c2ccc3c(c2)OCCO3)C1=O)c1ccccc1", "note": "(stereo not drawn)", "Potency": "inconclusive: 1.31 µM [inhibitor, partial curve, poor fit]"},
      {"smiles": "O=C(CNC(=S)N(Cc1ccccc1)Cc1cccs1)NCc1ccc(F)cc1", "Potency": "inconclusive: 9.28 µM [inhibitor, partial curve, poor fit]"},
      {"smiles": "CCCc1cc(C(=O)Nc2ccccc2SC)no1", "Potency": "inconclusive: 8.28 µM [inhibitor, partial curve, poor fit]"},
      {"smiles": "CCSc1ccc([C@@H]2[C@@H]3C(=O)N(C)C(=O)[C@@H]3[C@]3(C(=O)OC)CCCCN23)cc1", "Potency": "inconclusive: 18.5 µM [inhibitor, single point]"},
      {"smiles": "CC1CCC(NC(=O)C2CCC(CNc3c(N4CCCCC4)c(=O)c3=O)CC2)CC1", "note": "(stereo not drawn)", "activity change, negative = inhibition": "inactive: -11.2%"},
      {"smiles": "COc1cc(CNC(C)c2ccccc2)cc(Br)c1OCc1ccc(F)cc1", "note": "(stereo not drawn)", "Potency": "inconclusive: 13.1 µM [inhibitor, single point]"},
      {"smiles": "O=C(NCCCN1CCCC1=O)c1cccc(C(F)(F)F)c1", "Potency": "active: 8.28 µM"},
      {"smiles": "COc1ccc(CN(C(=O)c2nsc(Cl)c2Cl)C(C(=O)NC2CCCCC2)c2ccc(OC)cc2)cc1", "note": "(stereo not drawn)", "Potency": "inconclusive: 1.47 µM [inhibitor, full curve]"},
      {"smiles": "CC(CCc1ccccc1)NC(=O)COC(=O)c1ccc(S(C)(=O)=O)c([N+](=O)[O-])c1", "note": "(stereo not drawn)", "activity change, negative = inhibition": "inactive: -14.9%"},
      {"smiles": "C=CCOc1ccccc1CN1CCC(C(=O)Nc2cccc(-c3ccn[nH]3)c2)CC1", "Potency": "inconclusive: 10.4 µM [inhibitor, single point]"},
      {"smiles": "O=C(N/N=C/c1cc2c3c(c1O)CCCN3CCC2)c1ccccc1O", "Potency": "active: 2.62 µM"},
      {"smiles": "CCCC(C)NC(=O)COc1ccc(Sc2ccc(OCC(=O)NC(C)CCC)cc2)cc1", "note": "(stereo not drawn)", "Potency": "inconclusive: 1.85 µM [inhibitor, full curve]"},
      {"smiles": "COc1ccc(C)cc1S(=O)(=O)N1CCCC(N2CCOCC2)C1", "note": "(stereo not drawn)", "Potency": "inconclusive: 9.28 µM [inhibitor, partial curve, poor fit]"},
      {"smiles": "COc1ccccc1N(C)S(=O)(=O)c1ccc(C(=O)N2CCCC(C(F)(F)F)C2)cc1", "note": "(stereo not drawn)", "Potency": "inconclusive: 13.1 µM [inhibitor, single point]"},
      {"smiles": "Cc1cccc(OCCNC(=O)c2cc(-n3cnnc3)ccc2Cl)c1", "activity change, negative = inhibition": "inactive: 43.5%"},
      {"smiles": "CCOC(=O)c1cc(-c2cccs2)nc2onc(C)c12", "Potency": "inconclusive: 0.147 µM [inhibitor, full curve, poor fit]"},
      {"smiles": "CCCOC1CCCN(C(=O)c2cc(COc3c(F)cccc3F)on2)C1", "note": "(stereo not drawn)", "activity change, negative = inhibition": "inactive: 165%"},
      {"smiles": "O=C(CN1C(=O)NC2(CCCCCC2)C1=O)N1CCN(S(=O)(=O)c2ccc(Cl)cc2)CC1", "activity change, negative = inhibition": "inactive: 1.29%"},
      {"smiles": "Cc1noc(/C=C/c2nn(C)cc2Cl)c1[N+](=O)[O-]", "Potency": "inconclusive: 6.57 µM [inhibitor, partial curve]"}
    ]}
  ]
}
